Results taken from patent US11092596B2, “Material and method to screen proteasome stimulators” (Purdue Research Foundation, priority 2017, dated 2021).
At least one compound was matched to its structure with a doubt left.

Chains of the proteins cited; added tags and fusions are not shown. Lines headed by an entry give the natural chain unless they say otherwise; changes in a name come on top.
UniProt P28074: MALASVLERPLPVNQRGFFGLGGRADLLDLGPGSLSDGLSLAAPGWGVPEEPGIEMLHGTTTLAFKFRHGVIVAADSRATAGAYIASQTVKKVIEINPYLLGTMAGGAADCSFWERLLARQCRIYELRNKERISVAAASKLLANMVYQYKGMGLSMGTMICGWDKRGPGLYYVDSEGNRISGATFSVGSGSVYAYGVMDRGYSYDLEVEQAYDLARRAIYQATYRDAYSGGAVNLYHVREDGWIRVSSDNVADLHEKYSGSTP

Target: T1, chymotrypsin-like activity of the 20S CP (Homo sapiens, UniProt P28074)
T1 construct: 5 μL purified 20S proteasome (90 nM in Tris-HCl) was added to the control and test wells
Test: Kinetic assay, CT-L FRET reporter hydrolysis by purified 20S CP
Type: biochemical
Description: Plate preparation for the kinetic assay was performed similarly for all assays. All 96-well plates contained the following in triplicate: reporter background, containing reporter only, and control wells, containing reporter and purified 20S CP. It was determined that each well will contain a total volume of 50 μL. To each well was added 40 μL of the coumarin or FRET reporters (in Tris-HCl, 50 mM, pH 7.7). To the reporter background wells was added 7.5 μL Tris-HCl and 2.5 μL of the solvent in which the compound of interest was dissolved or diluted. Similarly, to the control wells was added 2.5 μL Tris-HCl and 2.5 μL of the solvent in which the compound of interest was dissolved or diluted. […] Immediately prior to running the assay on the Synergy 4 Plate Reader, 5 μL purified 20S proteasome (90 nM in Tris-HCl) was added to the control and test wells.
The Synergy 4 Plate Reader was set to heat the plate at 37° C. and read fluorescence every 2 min over a 40 min period. […]
AM-404 was used as a positive control compound to test the dose-response screening capabilities of the CT-L FRET reporter. […] Immediately prior to running the assay on the Synergy 4 Plate Reader, 5 μL purified 20S proteasome (90 nM in Tris-HCl) was added to the control and test wells. The assay was performed using the Synergy 4 plate reader as described for the general screening kinetic assay procedure. […]

CC(C)OC(=O)C(C)(C)Oc1ccc(C(=O)c2ccc(Cl)cc2)cc1 [fenofibrate]
Mean Signal (Rate) (CT-L FRET reporter, 20S CP, basal 5.300): 5.795 | stimulation of the 20S CP (negative control) (variety of doses (50, 25, 12.5 μM), CT-L FRET probe): did not stimulate the 20S CP
